# Results reported in patent publication US20240200083.
# Where a protein sequence is shown, tags need not be part of it.
# Target: T1, Cre recombinase (UniProt P06956)
# T1 sequence: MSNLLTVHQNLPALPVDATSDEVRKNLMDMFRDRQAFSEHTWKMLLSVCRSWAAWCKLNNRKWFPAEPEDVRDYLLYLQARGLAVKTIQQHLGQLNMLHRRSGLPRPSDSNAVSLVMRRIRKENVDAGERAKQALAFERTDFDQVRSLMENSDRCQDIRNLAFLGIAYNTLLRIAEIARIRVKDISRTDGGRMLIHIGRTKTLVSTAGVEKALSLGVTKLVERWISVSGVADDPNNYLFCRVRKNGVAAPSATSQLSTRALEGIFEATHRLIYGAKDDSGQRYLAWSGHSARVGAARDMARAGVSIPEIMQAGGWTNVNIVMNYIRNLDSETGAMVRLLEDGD
# Assay: activity in cells
# Conditions: lox71 x lox66 same-direction excision in E. coli, 2% arabinose induction 1 h at 37 C; little residual precursor plasmid; protein in cells; only the site is given
sequence,measurement,value
TACCGTTCGTATAATGTATGCTATACGAAGTTAT (double strand) [lox71],activity on this sequence,active
